Measured values reported in PubChem BioAssay AID2417 (National Center for Advancing Translational Sciences (NCATS), 2010).
About 4,300 (3.1%) of roughly 140,000 compounds were called active. Inconclusive means that the source gave no clear call. Such entries were picked first, then a sample of the others.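 The calls were made as follows: active = readout at or below -70, meaning at least 70% loss of cells showing the perinucleolar compartment, a nuclear body marking cancer cells; inconclusive = readout between -30 and a set limit; inactive = the rest.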

experiment: High Content Assay for Compounds that inhibit the Assembly of the Perinucleolar Compartment; conditions: PC3M PTB-GFP, PNC prevalence imaging, 16 h; at 10 µM; hits give low values;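 also: plate controls were DMSO wells for no effect and camptothecin positive control wells for full effect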
Method in brief: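 Compounds are pinned in duplicate onto adhered PC3M cells stably expressing GFP-tagged PTB and incubated 16 h at 37 C. Cells are then fixed, nuclei stained with Hoechst, and PNC-positive cells counted.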

| Structure (SMILES) | activity change (PNC), negative = inhibition |
| --- | --- |
| O=C(COc1ccc(Br)cc1Br)NC(=S)N1CCCc2ccccc21 | inactive: 59.6% |
| CCOC(=O)C(C)Sc1nnc(NC(=O)c2cccc([N+](=O)[O-])c2C)s1 (stereo not given) | inconclusive: -61.6% |
| O=C(NC(=S)Nc1ncccn1)c1ccccc1Cl | inconclusive: -68.3% |
| Cc1ccc(S(=O)(=O)NCC(=O)OCC(=O)N2CCc3ccccc32)cc1 | inconclusive: -64.8% |
| COc1cc(OC)c(C(=O)COc2ncnc3ccccc23)c(OC)c1 | inconclusive: -35.6% |
| COc1cccc(N2CCN(C(=O)C3C4C=CC5(CN(Cc6ccccc6Cl)C(=O)C35)O4)CC2)c1 (stereo not given) | inconclusive: -65.5% |
| Cc1ccc(C(NC(N)=O)c2ccccc2C)cc1 (stereo not given) | inconclusive: -34% |
| O=C(c1ccccc1F)N1CCc2ccccc21 | inconclusive: -44.3% |
| Cn1cccc1Cc1nnc(SCC(=O)Nc2ccc(Cl)cc2)n1-c1ccc(F)cc1 | inconclusive: -37.4% |
| Cc1cc(=O)oc2cc(OC(C)C(=O)N3CCOCC3)ccc12 (stereo not given) | inconclusive: -48.5% |
| CC(C)c1ccc(S(=O)(=O)c2nnn3c2nc(N2CCCCC2)c2ccccc23)cc1 | inconclusive: -40.3% |
| Cc1nc2c(C)cccc2cc1C(=O)N/N=C/c1ccc(O)cc1 | inactive: 2.84% |
| Cn1c(=O)c2c(nc(Oc3ccc(-c4ccccc4)cc3)n2C)n(C)c1=O | inconclusive: -56.6% |
| COC(=O)c1nnn(-c2nonc2N)c1CSCCO | inconclusive: -72.5% |
| COc1ccc(CN(C(=O)c2ccccc2OC)C2CCS(=O)(=O)C2)cc1 (stereo not given) | inactive: -22.5% |
| CCCn1cc(NC(=O)c2cc3n(n2)C(C(F)(F)F)CC(c2ccccc2)N3)cn1 (stereo not given) | active: -87.3% |
| Cc1nc(N2CCCCC2)c2ccsc2n1 | inconclusive: -74.5% |
| O=C(OCCN1C(=O)c2ccccc2C1=O)c1cc(S(=O)(=O)N2CCOCC2)ccc1Cl | inconclusive: -68.7% |
| Cc1ccc(C)c(NC(=O)CN2C(=O)CNC2=O)c1 | inconclusive: -66.3% |
| S=C(Nc1ccc2c(c1)OCO2)NC1CCN(Cc2ccccc2)CC1 | inconclusive: -31.7% |
| CCn1cc(C(=O)OCc2ccccc2)c(=O)c2ccc(C)nc21 | inconclusive: -44.9% |
| CCC(C)NC(=O)/C=C1\Sc2ccccc2NC1=O (stereo not given) | inactive: 27.7% |
| O=C(NC(=S)Nc1ccc(N2CCCC2)cc1)c1ccccc1[N+](=O)[O-] | active: -83% |

For convenience, part of the list above:

| Structure (SMILES) | activity change (PNC), negative = inhibition |
| --- | --- |
| CC(C)c1ccc(S(=O)(=O)c2nnn3c2nc(N2CCCCC2)c2ccccc23)cc1 | inconclusive: -40.3% |
| Cc1nc2c(C)cccc2cc1C(=O)N/N=C/c1ccc(O)cc1 | inactive: 2.84% |

(next part)

| Structure (SMILES) | activity change (PNC), negative = inhibition |
| --- | --- |
| O=C(C1CCC(=O)N1Cc1ccccc1Cl)N1CCN(c2cccc(Cl)c2)CC1 (stereo not given) | inactive: -12% |
| Cc1ccc(C)c(S(=O)(=O)N/N=C/c2cccnc2)c1 | inactive: -11.3% |
| O=C(CN1CCN(CCN2C(=O)c3cccc4cccc(c34)C2=O)CC1)c1ccc(F)cc1 | inconclusive: -39.7% |
| COc1ccccc1N1CCN(S(=O)(=O)c2cccc(F)c2)CC1 | inconclusive: -59.7% |
| CN(C)/C=N/c1sccc1C(N)=O | inconclusive: -78.6% |
| O=C(CCCCCn1c(=O)[nH]c2ccccc2c1=O)NCCCN1CCN(c2ccccc2F)CC1 | inconclusive: -59.2% |
| Cc1ccccc1N=C1N=C(N)c2ccccc21 | active: -95.7% |
| COc1ccccc1NC(=O)C1=C(C)NC2=C(C(=O)CCC2)C1c1ccc(C)o1 (stereo not given) | inconclusive: -60.4% |
| CCOC(=O)CNC(=O)CSc1ncnc2c1nnn2-c1ccc(F)cc1 | active: -100% |
| CC(C)C(=O)Nc1ccc(NC(=O)c2cccs2)cn1 | inconclusive: -38.1% |
| Cc1cc(C)n(-c2nc(NCC(C)O)c3c4c(sc3n2)COC(C)(C)C4)n1 (stereo not given) | inconclusive: -32.8% |
| COCCCNC(=O)c1cccc(OC)c1OC | inconclusive: -61.2% |
| CCN(CC)S(=O)(=O)c1ccc2oc(C(=O)N3CCOCC3)c(C)c2c1 | inconclusive: -58.8% |
| CCCC(O)(CCC)C(=O)NN(C(=O)CCl)c1ccccc1 | inconclusive: -35.1% |
| O=S(=O)(c1ccc(NCCc2c[nH]c3ccccc23)nc1)N1CCOCC1 | inconclusive: -69.4% |
| CC(=O)c1cc(C#N)c(Oc2ccc(F)cc2)nc1C | inactive: 7.22% |
| O=C1C(c2ccncc2)=C(O)c2ccccc21 | inconclusive: -43.1% |
| Cc1ccc(NC(=O)Cn2nnc(-c3ccccc3NC(=O)c3cccs3)n2)cc1 | active: -87.7% |
| CCc1nc(C#N)c(N2CCOCC2)o1 | inconclusive: -41.7% |
| O=C(c1cncc(Br)c1)N1CCc2ccccc2C1 | inconclusive: -71.3% |
| O=c1cc2[nH]c3ccccc3c(=O)n2nc1-c1ccccc1 | inconclusive: -39.2% |
| C1CCC(c2nn3c(-c4n[nH]c5c4CCC5)nnc3s2)CC1 | inconclusive: -58.5% |
